{"source": "patent US9757378B2", "about": "“Methods to modulate acute myeloid leukemia stem/progenitor cell expansion and/or differentiation” (UNIVERSITE DE MONTREAL, priority 2013, dated 2017)"}
{"tested_on": "primary human AML cells", "assay": "Secondary screen: dose response, five serial dilutions (CD34/CD15 flow cytometry)", "type": "cell-based", "details": "relative to dose tested in primary screen", "units": {"optimal concentration in 2ndary screen": "×"}}
{"molecule": "CNC(=O)c1cc2c(cn1)[nH]c1ccccc12", "note": "[UM0119840, N-Methyl-beta-carboline-3-carboxamide]", "optimal concentration in 2ndary screen": 2}
{"molecule": "COC(=O)c1ccc2c(c1)[nH]c1ncnc(NCCCN3CCCCC3)c12", "note": "[UM0125729, methyl 4-((3-(piperidin-1-yl)propyl)amino)-9H-pyrimido[4,5-b]indole-7-carboxylate]", "optimal concentration in 2ndary screen": 1}
{"molecule": "COc1ccc(-c2coc3c(O)c(OC)ccc3c2=O)cc1", "note": "[UM0121179, Retusin 7-Methylether]", "optimal concentration in 2ndary screen": 3}
{"molecule": "COc1ccc(-c2oc3cc(O)cc(O)c3c(=O)c2O)cc1", "note": "[UM0119298, Kaempferide]", "optimal concentration in 2ndary screen": 1}
{"molecule": "COc1cccc2oc(-c3ccccc3)cc(=O)c12", "note": "[UM0113898, 5-Methoxyflavone]", "optimal concentration in 2ndary screen": 2}
{"molecule": "O=C(Nc1ccc2c(c1)OCCO2)c1sc2ccccc2c1Cl", "note": "[UM0045609, 3-chloro-N-(2,3-dihydro-1,4-benzodioxin-6-yl)-1-benzithiophene-2-carboxamide]", "optimal concentration in 2ndary screen": 3}
